Results as given in publication PMC11403616, “Arcopilins: A New Family of Staphylococcus aureus Biofilm Disruptors from the Soil Fungus Arcopilus navicularis” (Journal of Medicinal Chemistry, 2024).
≈ marks a conversion by molar mass, not a printed value.

Test system: P. aeruginosa PA 14
Test: MIC against bacteria (antimicrobial assay)
Format: cell-based
Details: Pseudomonas aeruginosa, PA14, – = no activity observed under test conditions
Protocol: The antimicrobial activities of compounds 1–7 (Acp A–G) were assessed against different bacterial and fungal strains in addition to their cytotoxic effects on two mammalian cell lines. The tested microorganisms comprised a diverse array of clinically relevant pathogens, encompassing sensitive indicator strains. Among the Gram-positive bacteria were Bacillus subtilis, Staphylococcus aureus, and Mycolicibacterium smegmatis. Gram-negative bacteria included Acinetobacter baumannii, Chromobacterium violaceum, Escherichia coli, and Pseudomonas aeruginosa. Additionally, filamentous fungi such as Mucor hiemalis and yeasts including Candida albicans, Wickerhamomyces anomalus, Rhodotorula glutinis, and Schizosaccharomyces pombe were included. Generally, all compounds presented similar biological properties, summarized in weak or no activity against fungal pathogens as well as weak to moderate inhibition of Gram-positive bacteria (Table 2).
The antimicrobial and cytotoxic assays were performed according to the methods reported previously.[57]

CNC(C)C1CCC(N)C(OC2C(N)CC(N)C(OC3OCC(C)(O)C(NC)C3O)C2O)O1 (stereo not shown) [Gentamicin]
MIC: 0.21 µg/mL (≈ 0.44 µM)
